Our source for the binding values is publication PMC4214753.

Sequences of proteins named here, by UniProt entry; tags and fusion partners are left off. A change or cut given only in a name is not applied to a line headed by its entry.
UniProt P42768: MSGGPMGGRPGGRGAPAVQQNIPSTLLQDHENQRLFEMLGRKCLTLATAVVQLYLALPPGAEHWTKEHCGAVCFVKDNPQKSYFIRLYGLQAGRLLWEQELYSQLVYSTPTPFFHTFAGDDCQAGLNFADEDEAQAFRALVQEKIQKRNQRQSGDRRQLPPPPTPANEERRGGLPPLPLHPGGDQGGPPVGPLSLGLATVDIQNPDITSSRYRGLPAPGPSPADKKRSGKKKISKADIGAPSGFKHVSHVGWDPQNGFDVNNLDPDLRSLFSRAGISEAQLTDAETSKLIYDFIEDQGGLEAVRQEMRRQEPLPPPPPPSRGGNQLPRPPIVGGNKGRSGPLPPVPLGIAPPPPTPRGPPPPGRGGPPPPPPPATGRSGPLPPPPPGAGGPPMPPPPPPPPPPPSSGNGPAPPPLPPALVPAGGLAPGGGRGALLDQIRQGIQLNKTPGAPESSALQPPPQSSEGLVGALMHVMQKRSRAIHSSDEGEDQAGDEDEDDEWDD
UniProt P60766: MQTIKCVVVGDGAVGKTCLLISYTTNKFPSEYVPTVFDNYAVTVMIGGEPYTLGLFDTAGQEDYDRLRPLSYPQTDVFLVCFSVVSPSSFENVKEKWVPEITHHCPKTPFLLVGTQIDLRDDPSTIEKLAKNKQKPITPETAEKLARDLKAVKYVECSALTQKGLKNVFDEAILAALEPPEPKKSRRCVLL

No constants are given. Whether binding was seen depends on the method and setting. In cells and extracts the contact can be indirect. Binding calls can cover weak binding; strength is not graded here.

The assay addresses His-WASP-CBD (Cdc42 binding domain) (UniProt P42768). As to the kind of experiment: pull-down; CBD- or mCBD-beads with lysates of pseudopodia isolated from WT- or KO-MEF; IB for bound, active Cdc42; only the target purified.

Regarding Cdc42 (from UniProt P60766 1-191), the binding result is “binds”.
